Test: Inhibition of linoleic acid peroxidation (AAPH)
Conditions: AAPH assay, versus pteridine 9
Description: Azo compounds that generate free radicals through spontaneous thermal decomposition are useful for in vitro studies of free radical production. The water-soluble AAPH has been extensively used as a clean and controllable source of thermally produced alkylperoxyl free radicals. […] Evidently, the presence of 6,7-dimethyl groups on the pteridine ring greatly enhances protection against lipid peroxidation; the nature of the alkyl group and ring size on the 2-substituent has some, but much less, effect. […] The role of lipophilicity (as assessed from calculated clogP values; Table 1) is not clear, but substituent bulk plays a significant role.
Inhibition of linoleic acid peroxidation
Production of conjugated diene hydroperoxide by oxidation of linoleic acid in an aqueous dispersion was monitored at 234 nm. 2,2’-Azobis(2-amidinopropane) dihydrochloride (AAPH) was used as a free radical initiator. This assay was used to follow oxidative changes and to determine the inhibition of the peroxidation of sodium linoleate by each tested compound. […] In the assay without antioxidant, lipid oxidation was measured in the presence of DMSO (10 μL). The rate of oxidation at 37 °C was monitored by recording the increase in absorption at 234 nm caused by conjugated diene hydroperoxide formation (Table 2).
IC50 determinations. […] The SEM is the calculated standard error in the IC50 value of the fitted line.

Compound: CCN1CCN(CC)c2c1nc(N1CCN(C)CC1)nc2N1CCN(C)CC1 [Compound 10b]
- Decrease of potency in protection of lipid peroxidation relative to compound 9: 20 fold

Compound: CCN1CCNc2nc(N3CCN(C)CC3)nc(N3CCN(C)CC3)c21 [Compound 10a]
- Decrease of potency in protection of lipid peroxidation relative to compound 9: 13 fold
